Test results published in patent US20260174734A1, “PHARMACEUTICAL COMPOSITION” (MEXICHEM FLUOR S.A. DE C.V., priority 2016, published 2026).
At least one structure is not confirmed: it was looked up by name or label, or the drawing left a doubt.

Assay: In vitro aerosolization performance from MDI (Next Generation Impactor)
Format: physicochemical
[1] = HFA-134a propellant, T = 0, combination formulation, MDI
[2] = HFA-134a propellant, T = 1 month @ 40° C./75% RH, valve down
[3] = HFA-152a propellant, T = 0, combination formulation, MDI
[4] = HFA-152a propellant, T = 1 month @ 40° C./75% RH, valve down

Structure (SMILES): CCc1cc2c(cc1CC)CC(NC[C@H](O)c1ccc(O)c3[nH]c(=O)ccc13)C2 [Indacaterol, indacaterol]
- MMAD (HFA-134a based formulations): ~4.8 μm
- Emitted Dose (μg ± S.D.) [1]: 75.8 ± 1.8 µg
- FPFED (%) fine particle fraction of the emitted dose [1]: 31.5 ± 1.8%
- Fine Particle Dose (μg ± S.D.) [1]: 23.8 ± 0.8 µg
- MMAD ± GSD (μm) [1]: 4.8 ± 1.9 μm
- Emitted Dose (μg ± S.D.) [2]: 73.7 ± 1.2 µg
- FPFED (%) fine particle fraction of the emitted dose [2]: 29.8 ± 0.7%
- Fine Particle Dose (μg ± S.D.) [2]: 21.9 ± 0.7 µg
- MMAD ± GSD (μm) [2]: 4.8 ± 1.9 μm
- Emitted Dose (μg ± S.D.) [3]: 92.1 ± 3.0 µg
- FPFED (%) fine particle fraction of the emitted dose [3]: 50.9 ± 0.1%
- Fine Particle Dose (μg ± S.D.) [3]: 46.8 ± 1.5 µg
- MMAD ± GSD (μm) [3]: 3.4 ± 1.9 μm
- Emitted Dose (μg ± S.D.) [4]: 90.8 ± 2.3 µg
- FPFED (%) fine particle fraction of the emitted dose [4]: 49.5 ± 0.2%
- Fine Particle Dose (μg ± S.D.) [4]: 45.8 ± 1.2 µg
- MMAD ± GSD (μm) [4]: 3.5 ± 2.0 μm
